PubChem BioAssay AID1508597 | Cure First, 2020
Shown is a random part of about 2,100 reagents tested. 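Calls flag viability under 80% in either arm, not effects specific to rucaparib; the reference for percent is not stated.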 Not stated in the record: the 100% reference.

- Screen: 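Knock-downs altering ovarian cancer cell survival with or without PARP inhibitor rucaparib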 (primary screen)
- System: human ovarian carcinoma lines grown from tumours: OCI-P5x (papillary serous) and OCI-C5x (clear cell)
- Reagents: siRNA pool against human genes, 1.25 pmol siRNA per well
- Time to read-out: 72 h or 96 h, depending on the cell culture
- Treatment: rucaparib 20 µM (about IC30) or vehicle, present until read-out
- Read-out: 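ATP luminescence measured at 72 or 96 h according to the culture, then normalised and expressed as percent viability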
- Direction: viability, normalised: higher = more viable cells remaining
- Rule for the call: 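a well counts as a hit if its normalised viability is under 80 percent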
- Calls: active = viability under 80%; inactive = viability 80% or more

CLK1 (GeneID 1195), rucaparib or vehicle Rucaparib, cell line OCI-C5x (clear cell), technical replicate 1 showed viability, normalised (%) = 45; active.
For CLK1 (GeneID 1195), rucaparib or vehicle Rucaparib, cell line OCI-C5x (clear cell), technical replicate 2, the entry reads viability, normalised (%) = 48.9; active.
With CLK1 (GeneID 1195), rucaparib or vehicle Rucaparib, cell line OCI-C5x (clear cell), technical replicate 3 the deposit lists viability, normalised (%) = 46.3; active.
CLK1 (GeneID 1195), rucaparib or vehicle Rucaparib, cell line OCI-P5x (serous), technical replicate 1 scored viability, normalised (%) = 88.4; inactive.
CLK1 (GeneID 1195), rucaparib or vehicle Rucaparib, cell line OCI-P5x (serous), technical replicate 2 showed viability, normalised (%) = 87.4; inactive.
CLK1 (GeneID 1195), rucaparib or vehicle Rucaparib, cell line OCI-P5x (serous), technical replicate 3 showed viability, normalised (%) = 76.5; active.
CLK1 (GeneID 1195), rucaparib or vehicle Vehicle, cell line OCI-C5x (clear cell), technical replicate 1 showed viability, normalised (%) = 73.7; active.
CLK1 (GeneID 1195), rucaparib or vehicle Vehicle, cell line OCI-C5x (clear cell), technical replicate 2 showed viability, normalised (%) = 37.5; active.
CLK1 (GeneID 1195), rucaparib or vehicle Vehicle, cell line OCI-C5x (clear cell), technical replicate 3 showed viability, normalised (%) = 46.3; active.
With CLK1 (GeneID 1195), rucaparib or vehicle Vehicle, cell line OCI-P5x (serous), technical replicate 1, the entry reads viability, normalised (%) = 89.5; inactive.
With CLK1 (GeneID 1195), rucaparib or vehicle Vehicle, cell line OCI-P5x (serous), technical replicate 2, the values are viability, normalised (%) = 91.9; inactive.
CLK1 (GeneID 1195), rucaparib or vehicle Vehicle, cell line OCI-P5x (serous), technical replicate 3 showed viability, normalised (%) = 92.8; inactive.
For CLK4 (GeneID 57396), rucaparib or vehicle Rucaparib, cell line OCI-C5x (clear cell), technical replicate 1, the entry reads viability, normalised (%) = 66.6; active.
CLK4 (GeneID 57396), rucaparib or vehicle Rucaparib, cell line OCI-C5x (clear cell), technical replicate 2 scored viability, normalised (%) = 63.6; active.
For CLK4 (GeneID 57396), rucaparib or vehicle Rucaparib, cell line OCI-C5x (clear cell), technical replicate 3, the entry reads viability, normalised (%) = 65; active.
CLK4 (GeneID 57396), rucaparib or vehicle Rucaparib, cell line OCI-P5x (serous), technical replicate 1 gave viability, normalised (%) = 90; inactive.
For CLK4 (GeneID 57396), rucaparib or vehicle Rucaparib, cell line OCI-P5x (serous), technical replicate 2 the deposit lists viability, normalised (%) = 95.8; inactive.
CLK4 (GeneID 57396), rucaparib or vehicle Rucaparib, cell line OCI-P5x (serous), technical replicate 3 showed viability, normalised (%) = 83.8; inactive.
CLK4 (GeneID 57396), rucaparib or vehicle Vehicle, cell line OCI-C5x (clear cell), technical replicate 1 showed viability, normalised (%) = 72; active.
With CLK4 (GeneID 57396), rucaparib or vehicle Vehicle, cell line OCI-C5x (clear cell), technical replicate 2, the entry reads viability, normalised (%) = 55.9; active.
CLK4 (GeneID 57396), rucaparib or vehicle Vehicle, cell line OCI-C5x (clear cell), technical replicate 3 showed viability, normalised (%) = 54.4; active.
For CLK4 (GeneID 57396), rucaparib or vehicle Vehicle, cell line OCI-P5x (serous), technical replicate 1, the entry reads viability, normalised (%) = 74; active.
For CLK4 (GeneID 57396), rucaparib or vehicle Vehicle, cell line OCI-P5x (serous), technical replicate 2, the values are viability, normalised (%) = 71.6; active.
CLK4 (GeneID 57396), rucaparib or vehicle Vehicle, cell line OCI-P5x (serous), technical replicate 3 gave viability, normalised (%) = 57.4; active.
With URI1 (GeneID 8725), rucaparib or vehicle Rucaparib, cell line OCI-C5x (clear cell), technical replicate 1, the values are viability, normalised (%) = 68.9; active.
URI1 (GeneID 8725), rucaparib or vehicle Rucaparib, cell line OCI-C5x (clear cell), technical replicate 2 showed viability, normalised (%) = 73.4; active.
With URI1 (GeneID 8725), rucaparib or vehicle Rucaparib, cell line OCI-C5x (clear cell), technical replicate 3, the values are viability, normalised (%) = 69.4; active.
URI1 (GeneID 8725), rucaparib or vehicle Rucaparib, cell line OCI-P5x (serous), technical replicate 1 scored viability, normalised (%) = 88.3; inactive.
For URI1 (GeneID 8725), rucaparib or vehicle Rucaparib, cell line OCI-P5x (serous), technical replicate 2 the deposit lists viability, normalised (%) = 79.6; active.
URI1 (GeneID 8725), rucaparib or vehicle Rucaparib, cell line OCI-P5x (serous), technical replicate 3 showed viability, normalised (%) = 90.4; inactive.
URI1 (GeneID 8725), rucaparib or vehicle Vehicle, cell line OCI-C5x (clear cell), technical replicate 1 scored viability, normalised (%) = 68.6; active.
URI1 (GeneID 8725), rucaparib or vehicle Vehicle, cell line OCI-C5x (clear cell), technical replicate 2 scored viability, normalised (%) = 70.7; active.
URI1 (GeneID 8725), rucaparib or vehicle Vehicle, cell line OCI-C5x (clear cell), technical replicate 3 showed viability, normalised (%) = 66.7; active.
URI1 (GeneID 8725), rucaparib or vehicle Vehicle, cell line OCI-P5x (serous), technical replicate 1 showed viability, normalised (%) = 80; active.
For URI1 (GeneID 8725), rucaparib or vehicle Vehicle, cell line OCI-P5x (serous), technical replicate 2, the values are viability, normalised (%) = 80.2; inactive.
For URI1 (GeneID 8725), rucaparib or vehicle Vehicle, cell line OCI-P5x (serous), technical replicate 3, the entry reads viability, normalised (%) = 76.7; active.

As entered above:
Entry for URI1 (GeneID 8725), rucaparib or vehicle Rucaparib, cell line OCI-P5x (serous), technical replicate 1 under “viability, normalised (%)”: 88.3
For “viability, normalised (%)”, CLK4 (GeneID 57396), rucaparib or vehicle Vehicle, cell line OCI-C5x (clear cell), technical replicate 1 shows 72
CLK1 (GeneID 1195), rucaparib or vehicle Vehicle, cell line OCI-C5x (clear cell), technical replicate 2, viability, normalised (%) = 37.5
